PubChem BioAssay AID1671195, Yale University | 2021
The deposit covers about 22,000 reagents; this is an unselected part. About 1,510 of them (6.9%) count as active. 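Active includes knockdowns raising or lowering LDL uptake; positive z-scores mean more uptake, negative mean less.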

Assay: 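Regulators of LDL receptor activity judged by labelled LDL uptake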 (primary screen)
Cells: human Huh7 hepatoma cells
Reagent: siRNA pool against human genes, 18 nM
Time to read-out: about 2 to 2.5 days of knockdown, then 8 h LDL uptake
Challenge: DiI-labelled LDL at 30 µg/ml for 8 h, in lipoprotein-deficient serum medium
Read-out: 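Fluorescent LDL signal imaged in cells, scaled to the plate median, robust z-score for each replicate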
Reading the numbers: robust z-score: higher = more LDL uptake after knockdown
Active means: 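a gene counts as active if at least two replicate z-scores exceed ±2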

gene	robust z-score, replicate 1	robust z-score, replicate 2	robust z-score, replicate 3	call
LOC389778 (retired record)	5.91	6.33	7.6	active
FAM180A	-1.56	-1.3	-1.23	inactive
SAXO4	-0.527	-0.516	-0.22	inactive
ELOVL6	0.419	-0.574	-0.102	inactive
ST13P2	-0.888	-0.98	-0.649	inactive
CHD6	0.72	0.533	0.614	inactive
TMEM43	0.474	1.38	0.261	inactive
OR52B2	-0.0248	0.123	0.088	inactive
NME6	0.0691	1.04	0.092	inactive
RCL1	0.225	0.251	-0.125	inactive
RIBC2	-1.54	-0.344	-1.16	inactive
LOC399866 (retired record)	0.551	0.964	0.888	inactive
SARS1	-0.2	-2.78	-1.8	inactive
TTC19	0.866	2.2	1.22	inactive
TMEM220	-0.805	-0.863	-1.21	inactive
SH3PXD2A	-0.325	-0.499	1.27	inactive
GLG1	-1.23	-1.9	-0.912	inactive
CYGB	4.99	2.15	-1.4	active
RPS6KL1	-0.134	-0.0568	-0.187	inactive
DSTYK	0.652	1.37	0.722	inactive
DRAM1	-0.751	-0.806	-1.01	inactive
COPS7A	0.547	-0.493	0.378	inactive
NIPSNAP3A	-0.445	0.661	-0.821	inactive
SH3GL1	0.058	-1.23	-0.735	inactive
EBF3	-0.213	-0.276	-0.127	inactive
LRFN4	0.275	0.481	-0.333	inactive
TRMT112	-0.468	1.18	-0.946	inactive
FAM186A	0.526	-0.0286	-0.992	inactive
ATP6V0D1	-0.25	0.351	0.267	inactive
TUBB2B	-0.0741	0.952	0.536	inactive
RPL19P20	-0.389	0.205	0.337	inactive
POLR2K	0.0963	-0.686	-0.872	inactive
SAMHD1	-0.75	-0.279	-0.666	inactive
RBP4	-0.725	-0.496	-0.791	inactive
LOC100506459	-0.909	-0.803	-0.947	inactive
LOC441916 (retired record)	-0.626	-0.773	-0.801	inactive
CLDN17	0.266	0.157	0.551	inactive
NAPG	-0.584	-0.262	-0.29	inactive
H2AC15	0.144	2.41	0.409	inactive
SERPINI2	0.778	2.01	0.912	inactive
LOC387943 (retired record)	0.614	0.439	0.812	inactive
LINC01270	7.05	7.19	5.9	active
FES	-0.483	-1.16	-1.52	inactive
PRSS57	0.158	0.262	0.323	inactive
RYBP	0.57	0.0939	0.693	inactive
OR8U9	-0.855	-1.31	-1.28	inactive

7 consecutive reagents from above, quoted:
gene	robust z-score, replicate 1	robust z-score, replicate 2	robust z-score, replicate 3	call
TMEM220	-0.805	-0.863	-1.21	inactive
SH3PXD2A	-0.325	-0.499	1.27	inactive
GLG1	-1.23	-1.9	-0.912	inactive
CYGB	4.99	2.15	-1.4	active
RPS6KL1	-0.134	-0.0568	-0.187	inactive
DSTYK	0.652	1.37	0.722	inactive
DRAM1	-0.751	-0.806	-1.01	inactive
